Assay [1] concerns the target BD-SJP1 (jujube witches' broom (JWB) phytoplasma). In words: two-hybrid; bait (BD, pGBKT7) and prey (AD) vectors cotransformed into S. cerevisiae Y2HGold; growth on SD/-Ade/-His/-Leu/-Trp with 40 ug/ml X-alpha-Gal and 200 or 400 ng/ml AbA at 30°C for 3-5 days.
The target of assay [2] is BD-SJP2 (jujube witches' broom (JWB) phytoplasma). Described as above.

No constants are given. Whether binding was seen depends on the method and setting. Binding can be weak; no strength is given. Sequences can lack the tags named with a protein.

B1: AD-AtBRC1 (protein, UniProt A1YKT1 1-433)
chain: MNNNIFSTTTTINDDYMLFPYNDHYSSQPLLPFSPSSSINDILIHSTSNTSNNHLDHHHQFQQPSPFSHFEFAPDCALLTSFHPENNGHDDNQTIPNDNHHPSLHFPLNNTIVEQPTEPSETINLIEDSQRISTSQDPKMKKAKKPSRTDRHSKIKTAKGTRDRRMRLSLDVAKELFGLQDMLGFDKASKTVEWLLTQAKPEIIKIATTLSHHGCFSSGDESHIRPVLGSMDTSSDLCELASMWTVDDRGSNTNTTETRGNKVDGRSMRGKRKRPEPRTPILKKLSKEERAKARERAKGRTMEKMMMKMKGRSQLVKVVEEDAHDHGEIIKNNNRSQVNRSSFEMTHCEDKIEELCKNDRFAVCNEFIMNKKDHISNESYDLVNYKPNSSFPVINHHRSQGAANSIEQHQFTDLHYSFGAKPRDLMHNYQNMY
Turning to B1, the binding result in assay [1] and in assay [2] was “binds” in each case.

The record behind these values is PMC10483173.
